Experimental data from US4250255A, “Assay method for isoenzyme activity” (Eastman Kodak Company, priority 1977, dated 1981).

Assays:
[1] = target: T1, LD1 (Sus scrofa, UniProt P00336); assay: LDH activity assay with amphiphile, LDH isoenzymes; format: biochemical, porcine; design: porcine LDH, LD1, LD2, LD3, LD4 and LD5 in the form of ammonium sulfate suspensions; conditions: read-out: amphiphile concentration for complete inactivation of LD1
Protocol: (§1) 3. Beef heart LDH (Sigma Chemical Co., Type III), rabbit muscle LDH (Sigma Chemical Co., Type V) and porcine LDH, LD1, LD2, LD3, LD4 and LD5 in the form of ammonium sulfate suspensions were used for these examples.
(§2) The assay for LDH activity in both the absence and presence of surfactant was conducted as follows. […] The resulting solution contains approximately 5 units/ml. […] To the equilibrated solution […]. of the enzyme solution was added, and the cuvette was rapidly shaken while covering the top of the cuvette with a small piece of Parafilm® and placed back into the spectrophotometer.
(§3) Amphiphile solutions were prepared by weighing out a given amount of amphiphile, e.g., 100 mg, and preparing a stock solution in 30 mM sodium phosphate buffer in 100 ml. volumetric flask. Solutions of lower amphiphile concentration were prepared by making the appropriate dilutions from the stock solution.

[2] = target: T2, LD2 (Sus scrofa, UniProt P00336+P00339); assay: LDH activity assay with amphiphile, LDH isoenzymes; format: biochemical, porcine; conditions: read-out: amphiphile concentration for complete inactivation of LD2
T2 construct: porcine LDH, LD1, LD2, LD3, LD4 and LD5 in the form of ammonium sulfate suspensions
Protocol: as §1, §2, §3

[3] = target: T3, LD3 (Sus scrofa, UniProt P00336+P00339); assay: LDH activity assay with amphiphile, LDH isoenzymes; format: biochemical, porcine; conditions: read-out: amphiphile concentration for complete inactivation of LD3
T3 construct: porcine LDH, LD1, LD2, LD3, LD4 and LD5 in the form of ammonium sulfate suspensions
Protocol: as §1, §2, §3

[4] = target: T4, LD4 (Sus scrofa, UniProt P00336+P00339); assay: LDH activity assay with amphiphile, LDH isoenzymes; format: biochemical, porcine; conditions: read-out: amphiphile concentration for complete inactivation of LD4
T4 construct: porcine LDH, LD1, LD2, LD3, LD4 and LD5 in the form of ammonium sulfate suspensions
Protocol: as §1, §2, §3

[5] = target: LD5 (Sus scrofa, UniProt P00339); assay: LDH activity assay with amphiphile, LDH isoenzymes; format: biochemical, porcine; design: LD5 from two different species, i.e., rabbit muscle and hog muscle; from tissue; host or cells: hog muscle
Protocol: as §1, §2, §3

[6] = target: T1, LD1; assay: Effect of cationic amphiphiles on the activity of LDH isoenzymes (Table 1); format: biochemical
Protocol: as §2, §3
A number of cationic amphiphiles were investigated for specific inactivation of LD1 in the presence of LD5 and these compounds are listed in Table 1.

CCCCCCCCCCCCCCCC[n+]1ccccc1 [CP, cetylpyridinium bromide]
IC100 [1]: ~100 µM | IC100 [2]: ~100 µM | IC100 [3]: ~100 µM | IC100 [4]: ~100 µM | LD5 activity lost in the assay ([5]; CP as the amphiphile, assay as Example 5, FIG. 7): approximately 30% | remaining activity at 100 µM ([5]; pH 7.4, read-out: LD5 activity relative to a buffer control): 100% | IC50 [6]: 70 µM
